The nature of the experiment: qHTS Assay to Find Inhibitors of Chronic Active B-Cell Receptor Signaling. The conditions noted are these: ABC-DLBCL IkBa-CBG/CBR reporter, luminescence ratio (green luciferase fused to IkBa over red control in TMD8 lymphoma cells), 4 h. A digest of the protocol:
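TMD8 ABC-DLBCL cells carrying doxycycline-inducible green luciferase fused to IkappaBalpha plus unfused red luciferase were exposed to compounds (up to 46 uM) for 4 hrs at 37C. Activity came from the overlap-corrected green/red luminescence ratio.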
For orientation: Quantitative high-throughput screening tests each substance at several concentrations.

Setting [1] is: measured here: CBR red luminescence, cell number.
Where [2] appears, read: measured here: IkBa-CBG green luminescence.

Several values for one entry are separate records, joined by “and”; a condition that tells them apart may be missing. Equal values may be shown once. The list shows a part of the results. Shown are side measurements of this screen, not its main read-out; they come without a call. Compounds called inactive in the main read-out are mostly missing here. The note in brackets gives the kind of curve behind each potency; many fits are weak.

For orientation: AC50 means the midpoint of the concentration-response curve, whichever way the signal moves. `Cc1cc(C)c2ccc3c(C)c(C)n(C)c3c2n1`: under setting [1], the AC50 was 6.31 µM [falling, single point].

Consider `Nc1nnc(/C=C/c2ccccc2)s1`, for which the AC50 under setting [1] was 35.5 µM [falling, partial curve, poor fit]. Regarding `COc1ccc2nc(C3CCCCC3)nc(C3CCCCC3)c2c1`, the AC50 under setting [1] was 1.84 µM [rising, full curve]. Still for that read-out and setting: under `CCCc1cc(C(=O)OC)c(NC(=O)CCCC(=O)O)s1` stands 35.5 µM [rising, single point]; under `COc1ccccc1-c1nc(SC)n[nH]1`, 31.6 µM [falling, single point]. In the case of `COc1ccccc1N1CCN(C2CCCN(C(=O)c3cc(C)oc3C)C2)CC1` (centres undefined), under setting [1], the AC50 is 10 µM [falling, partial curve, poor fit]. Still for that read-out and setting: the value for `CC(C)n1cnc2c(Nc3ccc(C(=O)O)cc3)nc(Cl)nc21` was 6.31 µM [falling, partial curve]; that for `CCC1CCCCN1C(=O)CSc1nnc(-c2ccco2)o1` (centres undefined) was 10.3 µM [rising, partial curve, poor fit]; that for `CCOC(=O)[C@H]1[C@H]2COc3cc(OC)ccc3[C@@H]2N2C(=O)c3cc(C)ccc3NC(=O)[C@@]12C` was 0.82 µM [falling, full curve, poor fit]. Regarding `Cc1ccsc1S(=O)(=O)N1CCC(CO)(CC2CCCCO2)CC1` (centres undefined), the AC50 under setting [1] is 35.5 µM [falling, single point]. Still for that read-out and setting: under `O=C(Cc1ccc(O)cc1)NCCNC(=S)NCc1ccccc1` stands 3.98 µM [rising, partial curve, poor fit]. Consider `Cc1cccc2c1-c1sc(C(=O)NCCCN3CCCC(C)C3)cc1CO2` (centres undefined), for which the AC50 under setting [1] was 35.5 µM [falling, single point]. Still for that read-out and setting: under `Cc1ccc(Oc2ccc(S(=O)(=O)Nc3ccc(C(=O)O)cc3)cc2)cc1` stands 29.1 µM [falling, single point]; under `COc1ccc(NC(=O)COC(=O)c2ccc(-n3cnnn3)cc2)cc1Cl`, 25.9 µM [rising, single point]. As for `Cc1nc2ccc(S(=O)(=O)Nc3cccc(-c4nc5cccnc5s4)c3)cc2s1`, the AC50 under setting [1] is 32.6 µM [falling, single point] and the AC50 under setting [2] was 4.61 µM [falling, full curve].

With `Nc1cc(C(=O)O)ccc1Nc1ccc(F)c(F)c1`, the AC50 under setting [1] was 3.26 µM [falling, single point]. On the same count and under the same terms, under `COc1ccc(-c2csc(N3CCC(C(N)=O)CC3)n2)cc1` stands 4.61 µM [rising, partial curve]; under `CN(c1ccc(OC(=O)CN2C(=O)NC3(CCCC3)C2=O)cc1)S(=O)(=O)c1ccccc1`, 10.3 µM [rising, partial curve].

With `COc1ccc(NC(=O)CSc2nnc(NC(=O)NC3CCCCC3)s2)cc1OC`, the AC50 under setting [1] is 3.98 µM [falling, full curve]. The same measure, in the same setting: the value for `CCOC(=O)/C(C#N)=C/c1c(N2CCN(c3ccccc3)CC2)nc2ccccn2c1=O` was 0.501 µM [rising, full curve, poor fit]; that for `COc1ccc(Cl)cc1C(=O)OCC(=O)N(C)CC(=O)Nc1ccc(F)cc1` was 20.6 µM [falling, single point]; that for `CCCCCCCCCCC[N+](C)(C)CC/C=C1/c2ccccc2Sc2ccc(Cl)cc21` was 3.16 µM [falling, partial curve]. Still for that read-out and setting: the value for `Cn1cccc1/C=N/NC(=O)CSc1nc2ccccc2n1C` was 10 µM [rising, partial curve, poor fit]; that for `CCOC(=O)c1cnc2c(ccc3ccccc32)c1NCCCN(C)C` was 15.8 µM [falling, single point]; that for `COc1ccc(C2c3ccc(O)cc3Oc3ncn4nc(-c5ccco5)nc4c32)cc1OC` (centres undefined) was 7.94 µM [falling, partial curve]. `CCOC(=O)C(Sc1ncnc2c1sc1nc(N3CCOCC3)c3c(c12)CCCC3)c1ccccc1` (centres undefined): the AC50 under setting [1] was 12.6 µM [rising, single point]. Turning to `CCOC(=O)N1CCN(c2c(NCCCN3CCCCCC3)c(=O)c2=O)CC1`, the AC50 under setting [1] is 11.6 µM [falling, single point].

As to `COc1cccc(Cn2c(NCc3cccnc3)nc3c2c(=O)n(C)c(=O)n3C)c1`, the AC50 under setting [1] was 0.282 µM [falling, full curve, poor fit]. The same measure, in the same setting: under `O=C1C(=O)N(CCN2CCOCC2)C(c2ccc([N+](=O)[O-])cc2)/C1=C(/O)c1ccc2c(c1)OCO2` (centres undefined) stands 0.355 µM [rising, full curve, poor fit]. Turning to `COC(=O)c1cc(NC(=O)CSc2nncn2C)cc(C(=O)OC)c1`, the AC50 under setting [1] is 3.66 µM [falling, single point]. Same read-out and setting: the value for `Cc1cc(Cl)cc2c1NC(=O)[C@]21[C@@H]2C(=O)N(Cc3ccccc3)C(=O)[C@@H]2[C@@H]2CCCN21` was 35.5 µM [falling, single point] and 20.6 µM [falling, partial curve]. Still for that read-out and setting: the value for `Cc1cc(C)c(S(=O)(=O)N2CCN(c3ccc([N+](=O)[O-])c(-n4nc(C)cc4C)c3)CC2)c(C)c1` was 3.98 µM [falling, partial curve, poor fit]; that for `O=C1Nc2ccc(Br)cc2C1(O)Cc1ccccn1` (centres undefined) was 14.6 µM [rising, partial curve, poor fit]; that for `CCC(Cc1ccccc1)NC(=O)CN1C(=O)CSc2ncccc21` (centres undefined) was 5.17 µM [falling, partial curve, poor fit].

As to `CCC1SC(=NC(=O)c2ccc(Cl)c(Cl)c2)NC1=O` (centres undefined), under setting [1], the AC50 was 2.31 µM [rising, partial curve, poor fit]. Take `O=C(O)c1ccc(N/N=C/c2ccc3ncccc3c2)cc1`: the AC50 under setting [1] was 0.0517 µM [falling, full curve].

Take `O=C(Nc1cccnc1)c1cc(-c2ccccc2)on1`: the AC50 under setting [1] is 5.8 µM [falling, partial curve].

In the case of `O=[N+]([O-])c1ccc(O)c(Nc2ncnc3ccc(Br)cc23)c1`, the AC50 under setting [1] is 25.1 µM [rising, single point].

As to `CCc1cc(=O)oc2c3c(cc(OCC(=O)NCc4cccnc4)c12)OC(C)(C)CC3`, the concentration at half-maximal activity (AC50) under setting [1] was 35.5 µM [falling, single point]. The same measure, in the same setting: under `Cc1cc(C)c(C)c(S(=O)(=O)N[C@@H](C)C(=O)OCC(=O)NC2CCCC(C)C2C)c1C` (some centres undefined) stands 29.1 µM [rising, single point]; under `CCC1=C(OC(=O)N(CC)CC)N2C(=O)OC(=NCCc3c[nH]c4ccccc34)[C@]2(Cc2ccccc2)[C@H]2C1=CC[C@H]1C(=O)N(CC)C(=O)[C@H]12`, 12.6 µM [falling, single point]; under `Cc1ccc(Cl)cc1N1CCN(C(=O)CNC(=O)c2ccc(Br)o2)CC1`, 7.31 µM [falling, partial curve].

On to `CC/C(=N\NC(=O)c1ccc(-c2ccccc2)cc1)C12CC3CC(CC(C3)C1)C2`, for which the AC50 under setting [1] is 8.2 µM [falling, partial curve, poor fit].

For `Cn1c(SCC(=O)Nc2sccc2C(N)=O)nc2ccccc2c1=O`, the concentration at half-maximal activity (AC50) under setting [1] is 0.82 µM [falling, full curve, poor fit]. As for `O=[N+]([O-])c1ccc(N=Nc2ccc(O)cc2O)cc1`, the concentration at half-maximal activity (AC50) under setting [1] is 0.326 µM [rising, full curve, poor fit]. Take `COc1c(Br)cc([N+](=O)[O-])c(OC)c1C(=O)NC(=O)Nc1cc(Cl)cc(Cl)c1`: under setting [1], the AC50 is 14.1 µM [falling, single point]. Turning to `CCC(C)NC(=O)COc1ccc(Br)c(C)c1` (centres undefined), the AC50 under setting [1] is 32.6 µM [falling, single point]. On the same count and under the same terms, under `O=C(COC(=O)c1cnccn1)c1ccccc1` stands 0.00517 µM [falling, full curve, poor fit].

Regarding `Cc1cccc(C(=O)Nc2cccc(S(=O)(=O)NCc3ccco3)c2)c1`, under setting [1], the AC50 was 0.366 µM [rising, full curve]. The same measure, in the same setting: the value for `O=C(Nc1nc2ccccc2[nH]1)c1cccc(S(=O)(=O)N2CCOCC2)c1` was 2.91 µM [falling, single point]; that for `CC1(C)CC(/C=C/c2ccccc2)=Nc2ccccc2N1` was 35.5 µM [falling, single point]. As for `COc1ccccc1-c1noc(CSc2nc(N)cc(=O)[nH]2)n1`, the AC50 by setting is: under setting [1], 20 µM [rising, partial curve]; under setting [2], 20 µM [falling, partial curve]. As to `CN(C)S(=O)(=O)c1cccc(NC(=S)NCc2ccc3c(c2)OCO3)c1`, the AC50 under setting [1] was 35.5 µM [falling, single point].

Take `Cc1cccn2c(=O)c(C(=O)NCCc3ccccc3)cnc12`: the AC50 under setting [1] is 14.1 µM [falling, partial curve]. Still for that read-out and setting: under `O=C(CCn1nnc(-c2cccs2)n1)N1CCc2ccccc2C1` stands 29.1 µM [rising, single point]. Regarding `Cc1c(Br)c([N+](=O)[O-])nn1C(C)C(=O)N1CCc2ccccc2C1` (centres undefined), the AC50 under setting [1] was 8.91 µM [rising, partial curve, poor fit]. On to `C#CCNC(=O)C1=C[C@@H](c2coc3ccccc3c2=O)[C@H](CCCO)[C@@H](OCC)O1`, for which the AC50 under setting [1] was 2.82 µM [rising, single point]. The same measure, in the same setting: under `COc1cccc(CC(=O)N2CCCC(CCC(=O)N3CCN(c4ccccn4)CC3)C2)c1` (centres undefined) stands 35.5 µM [falling, single point]. Consider `Cc1cccc(CN2C[C@]34CC[C@@H](C[C@@H]3S2(=O)=O)O4)c1`, for which the AC50 under setting [1] is 1.58 µM [rising, full curve, poor fit].

In the case of `Cc1ccc(S(=O)(=O)/N=C2\C=C(Nc3ccc(O)cc3)C(=O)c3ccccc32)cc1`, the AC50 under setting [1] was 1.84 µM [falling, partial curve].

In the case of `CCOC(=O)C1CCCN(C(=O)c2sc3nc4n(c(=O)c3c2C)CCC4)C1` (centres undefined), the concentration at half-maximal activity (AC50) under setting [1] was 4.11 µM [rising, single point]. Same read-out and setting: the value for `O=C(NCCN1C(=O)S/C(=C\c2ccc(Cl)c(Cl)c2)C1=O)c1ccc2c(c1)C(=O)N(Cc1ccncc1)C2=O` was 32.6 µM [rising, partial curve, poor fit].
